# Library screen at single concentrations

The chains behind the UniProt entries cited, without tags or fusion partners.
UniProt I6X8D2, whole entry: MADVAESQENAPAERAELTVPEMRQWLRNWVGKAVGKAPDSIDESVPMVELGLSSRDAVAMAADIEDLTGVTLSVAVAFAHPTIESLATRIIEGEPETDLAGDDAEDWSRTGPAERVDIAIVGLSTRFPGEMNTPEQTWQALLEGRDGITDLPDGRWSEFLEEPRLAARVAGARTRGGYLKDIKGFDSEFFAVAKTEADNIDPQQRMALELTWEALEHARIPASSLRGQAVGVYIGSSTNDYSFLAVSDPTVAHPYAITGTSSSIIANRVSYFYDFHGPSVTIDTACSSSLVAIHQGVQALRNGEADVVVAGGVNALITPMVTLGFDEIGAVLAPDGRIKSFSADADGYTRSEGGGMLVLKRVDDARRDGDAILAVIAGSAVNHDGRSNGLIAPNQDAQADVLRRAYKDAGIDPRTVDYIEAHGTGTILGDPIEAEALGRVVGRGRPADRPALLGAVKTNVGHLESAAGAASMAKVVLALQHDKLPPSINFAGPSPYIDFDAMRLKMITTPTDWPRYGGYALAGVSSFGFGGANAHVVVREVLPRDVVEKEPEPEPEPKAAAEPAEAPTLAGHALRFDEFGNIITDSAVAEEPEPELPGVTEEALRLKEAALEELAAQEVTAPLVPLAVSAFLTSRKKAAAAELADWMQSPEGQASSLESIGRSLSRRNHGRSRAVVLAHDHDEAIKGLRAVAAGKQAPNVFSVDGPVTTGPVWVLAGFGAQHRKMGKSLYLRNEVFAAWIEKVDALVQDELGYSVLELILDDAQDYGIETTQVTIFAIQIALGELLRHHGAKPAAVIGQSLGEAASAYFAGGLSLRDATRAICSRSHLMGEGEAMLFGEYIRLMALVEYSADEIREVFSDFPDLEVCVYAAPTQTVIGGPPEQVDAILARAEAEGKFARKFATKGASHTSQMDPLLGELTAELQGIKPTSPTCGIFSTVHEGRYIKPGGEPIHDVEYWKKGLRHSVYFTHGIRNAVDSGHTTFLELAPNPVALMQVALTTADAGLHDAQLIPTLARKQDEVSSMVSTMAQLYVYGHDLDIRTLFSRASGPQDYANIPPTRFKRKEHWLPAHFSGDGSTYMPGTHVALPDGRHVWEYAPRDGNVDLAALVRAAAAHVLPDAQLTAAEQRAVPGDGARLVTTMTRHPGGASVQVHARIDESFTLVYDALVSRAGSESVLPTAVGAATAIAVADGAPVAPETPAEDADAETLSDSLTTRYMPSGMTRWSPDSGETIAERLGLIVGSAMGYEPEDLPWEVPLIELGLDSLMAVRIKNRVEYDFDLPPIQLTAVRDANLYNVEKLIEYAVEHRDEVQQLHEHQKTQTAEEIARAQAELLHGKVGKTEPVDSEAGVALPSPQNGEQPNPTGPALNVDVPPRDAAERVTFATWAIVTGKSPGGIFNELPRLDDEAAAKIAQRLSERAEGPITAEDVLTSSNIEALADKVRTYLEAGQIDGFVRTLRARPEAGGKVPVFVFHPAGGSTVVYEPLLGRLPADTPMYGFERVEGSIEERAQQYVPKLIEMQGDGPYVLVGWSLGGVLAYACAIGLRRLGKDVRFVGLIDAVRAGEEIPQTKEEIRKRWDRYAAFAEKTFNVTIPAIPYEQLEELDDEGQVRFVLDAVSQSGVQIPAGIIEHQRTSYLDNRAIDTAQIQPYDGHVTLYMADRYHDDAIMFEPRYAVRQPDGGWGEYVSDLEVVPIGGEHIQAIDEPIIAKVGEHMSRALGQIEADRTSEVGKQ

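Polyketide synthase Pks13, Mycobacterium tuberculosis (UniProt I6X8D2). Enzyme assay of the thioesterase domain of polyketide synthase 13; the read-out is not stated. Concentration: 30 µM. The record gives no direction; the compounds picked for IC50 retests had high values, so higher reads as stronger inhibition. Of about 67,000 compounds tested this way, about 300 (0.46%) reached 50% or more in at least one test.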

Results are given as percent effect.
The record does not define 0% and 100%; most values in the screen are far below 50% and negative numbers occur (in some assays of this library far below -100).
The compounds are a random part of those screened.

Compound: O=C(O)C1CN(c2cccc(F)c2)CCO1 (stereo not given)
percent effect: -8.32%

Compound: c1cncc(CNc2ccc3nc(C4CCNCC4)nn3c2)c1
percent effect: -17.98%

Compound: CNC(=O)Cc1noc(-c2cc3c(s2)CCCCCC3)n1
percent effect: -23.35%

Compound: CC(C)OCCC(=O)NCC(O)c1c(Cl)cccc1Cl (stereo not given)
percent effect: -8.815%

Compound: NC(=O)CN1CCc2c(Br)ccc(F)c2C1
percent effect: -34.82%

Compound: O=C(c1ccc2c(c1)CCCC2)N1CCn2ncnc2C1
percent effect: -0.5317%

Compound: CCn1nc(Br)nc1Sc1ccccc1NC(C)=O
percent effect: -8.243%

Compound: NC(=O)CN(Cc1ccc(Br)cc1)C(=O)c1ccccn1
percent effect: -35.01%

Compound: CSc1cccc(NC(C)C(=O)Nc2nccs2)c1 (stereo not given)
percent effect: 13.66%

Compound: CCOc1ccccc1OC1CCN(C(=O)c2c[nH]nn2)CC1
percent effect: -3.058%

Compound: CN1CCC(N[C@@H]2CO[C@H](CNC(=O)Nc3ccccc3)[C@H]2O)CC1
percent effect: -34.46%

Compound: COc1ccc(C2OC(COc3ccc(C)cc3)=NN2C(C)=O)cc1 (stereo not given)
percent effect: -8.033%

Compound: CN(C)C1CCN(C(=O)c2cc3c(s2)CCN3C(=O)C2CC2)CC1
percent effect: -31.84%

Compound: CC(C)(C)NC(=O)C1CSCN1S(=O)(=O)c1cccc(F)c1 (stereo not given)
percent effect: -3.154%

Compound: O=C(c1cccnc1)N1CCc2ncnc(N3CCOCC3)c2CC1
percent effect: -1.963%

Compound: Cc1cc(CN2CCN(C(=O)Nc3cccnc3)CC2)on1
percent effect: -1.491%

Compound: Cc1ccc(CN2C[C@H](N(C)Cc3cncnc3)[C@H]3OCCC[C@H]32)o1
percent effect: -2.023%

Compound: Cc1cnc(N2C[C@@H]3CN(Cc4ccco4)CCC[C@]3(C(=O)O)C2)nc1
percent effect: -14.43%

Compound: Cn1nccc1-c1nc2c(cc1C(=O)O)CCN(CC1CC1)CC2
percent effect: -11.36%

Compound: CCN1CCC2(CN(C(C)=O)CC23CCN(C(=O)N(C)C)CC3)C1=O (stereo not given)
percent effect: -34.48%

Compound: Cc1ccc(CN(CCCN(C)C)Cc2cnc(C)n2C)o1
percent effect: 4.981%

Compound: Cc1ccc(C(=O)N2C[C@H]3CCC[C@@]3(COc3ccccn3)C2)nc1
percent effect: -18.01%

Compound: CC1CCCN(CCNC(=O)c2ccn(-c3cccc(F)c3)n2)C1 (stereo not given)
percent effect: -31.59%

Compound: CNC(=O)c1nc(COc2ccc3c(c2)OCO3)no1
percent effect: -2.208%

Compound: CC1(C)CC(N(Cc2ccncc2)Cc2cccnc2)CC(C)(C)N1
percent effect: 6.298%

Compound: O=C1CC2(CCN(Cc3ncc[nH]3)CC2)CN1Cc1ccc(Cl)cc1
percent effect: -11.85%

Compound: Cc1ccc(S(=O)(=O)c2ncccc2CN2CCCCC2)cc1
percent effect: -34.41%

Compound: CC(C)CN1CCC2(C1)CN(c1ncccn1)C2
percent effect: -25.51%

Compound: O=C(Cc1ccc2c(c1)OCCO2)N1CCN(c2cnccn2)CC1
percent effect: 6.621%

Compound: COc1cccc2c1ccn2CCNC(=O)C(C)C
percent effect: -23.97%

Compound: CCCN1C(=O)c2ccccc2C1OC (stereo not given)
percent effect: -11.85%

Compound: CSCCC1c2nc[nH]c2CCN1Cc1cncn1C (stereo not given)
percent effect: -1.386%

Repeated from the top, 2 entries:

| Compound | percent effect |
|---|---|
| `O=C(O)C1CN(c2cccc(F)c2)CCO1` (stereo not given) | -8.32% |
| `c1cncc(CNc2ccc3nc(C4CCNCC4)nn3c2)c1` | -17.98% |

Measurements from “University of Dundee, Small-Polar-MMV Screening Library” (2021), ChEMBL document CHEMBL3988442.